No constants are given. Whether binding was seen depends on the method and setting. Some entries that bind do so weakly or less than the wild type. For part of these data: Tags and fused reporters may be left off the sequences shown.
T1: PEAR1 ectodomain, monomeric biotinylated bait (human) (UniProt Q5VY43)
T1 sequence (chain, biotin (on the biotinylatable peptide tag)): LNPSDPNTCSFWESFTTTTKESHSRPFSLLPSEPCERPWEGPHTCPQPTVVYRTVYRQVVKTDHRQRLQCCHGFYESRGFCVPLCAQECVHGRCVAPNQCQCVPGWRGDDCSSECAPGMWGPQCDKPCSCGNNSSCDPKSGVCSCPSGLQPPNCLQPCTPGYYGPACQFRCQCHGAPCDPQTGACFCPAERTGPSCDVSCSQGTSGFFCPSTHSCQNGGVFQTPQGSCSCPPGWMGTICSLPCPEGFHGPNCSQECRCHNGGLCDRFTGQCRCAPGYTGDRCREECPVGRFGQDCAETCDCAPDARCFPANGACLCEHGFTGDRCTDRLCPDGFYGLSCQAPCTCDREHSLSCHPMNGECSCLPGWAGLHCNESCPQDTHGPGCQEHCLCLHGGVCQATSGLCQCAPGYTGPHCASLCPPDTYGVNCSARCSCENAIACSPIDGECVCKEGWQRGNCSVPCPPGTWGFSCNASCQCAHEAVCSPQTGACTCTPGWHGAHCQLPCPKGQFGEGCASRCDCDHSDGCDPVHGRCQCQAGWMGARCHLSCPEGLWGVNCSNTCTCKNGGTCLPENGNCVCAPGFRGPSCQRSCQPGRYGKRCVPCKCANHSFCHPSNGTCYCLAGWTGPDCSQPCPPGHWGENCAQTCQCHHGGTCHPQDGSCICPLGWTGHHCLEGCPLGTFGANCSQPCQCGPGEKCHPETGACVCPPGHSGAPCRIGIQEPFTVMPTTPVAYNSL

Protein sequences, listed by entry. Tags and fused reporters are not part of them. Residues count along the entry.
UniProt P12319, residues 26-205: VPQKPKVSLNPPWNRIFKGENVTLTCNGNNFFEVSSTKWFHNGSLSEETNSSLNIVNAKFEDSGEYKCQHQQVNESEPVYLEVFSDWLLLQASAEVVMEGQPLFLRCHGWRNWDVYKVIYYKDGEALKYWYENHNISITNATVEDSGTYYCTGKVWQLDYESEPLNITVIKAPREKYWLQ


Key:
[1] = molecular target: T1, PEAR1 ectodomain, monomeric biotinylated bait (human); experiment: peptide or protein array; AVEXIS on a microarray: purified biotinylated baits printed in six 3-fold dilutions on streptavidin-coated hydrogel slides; pentameric FLAG-tagged normalised preys incubated 1 h; anti-FLAG-HRP and tyramide Alexa Fluor 555; 22 °C; purification of the preys not told
[2] = molecular target: T1, PEAR1 ectodomain, monomeric biotinylated bait (human); experiment: AVEXIS (avidity-based extracellular interaction screen); competition: PEAR1 as plate-immobilised bait, FcεR1α prey preincubated with IgE, IgE fragments or control IgG (with or without 2.5 μg omalizumab); nitrocefin read-out; rat Cd200-Cd200R as control interaction
[3] = molecular target: FcεR1α ectodomain, monomeric biotinylated bait (human) (UniProt P12319); experiment: peptide or protein array; AVEXIS on a microarray: purified biotinylated baits printed in six 3-fold dilutions on streptavidin-coated hydrogel slides; pentameric FLAG-tagged normalised preys incubated 1 h; anti-FLAG-HRP and tyramide Alexa Fluor 555; 22 °C; purification of the preys not told

Row | binding [1] | binding [2] | binding [3] | Molecule
1 | binds | binds | – | FcεR1α entire ectodomain, pentameric prey (from UniProt P12319 26-205) (receptor)
2 | – | – | binds | PEAR1 entire ectodomain, recombinant pentameric FLAG-tagged soluble prey (receptor, UniProt Q5VY43 21-755) LNPSDPNTCSFWESFTTTTKESHSRPFSLLPSEPCERPWEGPHTCPQPTVVYRTVYRQVVKTDHRQRLQCCHGFYESRGFCVPLCAQECVHGRCVAPNQCQCVPGWRGDDCSSECAPGMWGPQCDKPCSCGNNSSCDPKSGVCSCPSGLQPPNCLQPCTPGYYGPACQFRCQCHGAPCDPQTGACFCPAERTGPSCDVSCSQGTSGFFCPSTHSCQNGGVFQTPQGSCSCPPGWMGTICSLPCPEGFHGPNCSQECRCHNGGLCDRFTGQCRCAPGYTGDRCREECPVGRFGQDCAETCDCAPDARCFPANGACLCEHGFTGDRCTDRLCPDGFYGLSCQAPCTCDREHSLSCHPMNGECSCLPGWAGLHCNESCPQDTHGPGCQEHCLCLHGGVCQATSGLCQCAPGYTGPHCASLCPPDTYGVNCSARCSCENAIACSPIDGECVCKEGWQRGNCSVPCPPGTWGFSCNASCQCAHEAVCSPQTGACTCTPGWHGAHCQLPCPKGQFGEGCASRCDCDHSDGCDPVHGRCQCQAGWMGARCHLSCPEGLWGVNCSNTCTCKNGGTCLPENGNCVCAPGFRGPSCQRSCQPGRYGKRCVPCKCANHSFCHPSNGTCYCLAGWTGPDCSQPCPPGHWGENCAQTCQCHHGGTCHPQDGSCICPLGWTGHHCLEGCPLGTFGANCSQPCQCGPGEKCHPETGACVCPPGHSGAPCRIGIQEPFTVMPTTPVAYNSL

Source: PMC4424398, “A Human Platelet Receptor Protein Microarray Identifies the High Affinity Immunoglobulin E Receptor Subunit α (FcεR1α) as an Activating Platelet Endothelium Aggregation Receptor 1 (PEAR1) Ligand* ^([image sbox.jpg])” (Molecular & Cellular Proteomics : MCP, 2015)
